Measurements: the supplement of paper PMC3334620
In all, about 33,000 sequences were measured (“E-score (-0.5 to 0.5)”: median about -0.016, highest 2% from about 0.3 on). The list shows a part of the results.

Biological target: T1, Yer184c (UniProt P39961)
T1 sequence: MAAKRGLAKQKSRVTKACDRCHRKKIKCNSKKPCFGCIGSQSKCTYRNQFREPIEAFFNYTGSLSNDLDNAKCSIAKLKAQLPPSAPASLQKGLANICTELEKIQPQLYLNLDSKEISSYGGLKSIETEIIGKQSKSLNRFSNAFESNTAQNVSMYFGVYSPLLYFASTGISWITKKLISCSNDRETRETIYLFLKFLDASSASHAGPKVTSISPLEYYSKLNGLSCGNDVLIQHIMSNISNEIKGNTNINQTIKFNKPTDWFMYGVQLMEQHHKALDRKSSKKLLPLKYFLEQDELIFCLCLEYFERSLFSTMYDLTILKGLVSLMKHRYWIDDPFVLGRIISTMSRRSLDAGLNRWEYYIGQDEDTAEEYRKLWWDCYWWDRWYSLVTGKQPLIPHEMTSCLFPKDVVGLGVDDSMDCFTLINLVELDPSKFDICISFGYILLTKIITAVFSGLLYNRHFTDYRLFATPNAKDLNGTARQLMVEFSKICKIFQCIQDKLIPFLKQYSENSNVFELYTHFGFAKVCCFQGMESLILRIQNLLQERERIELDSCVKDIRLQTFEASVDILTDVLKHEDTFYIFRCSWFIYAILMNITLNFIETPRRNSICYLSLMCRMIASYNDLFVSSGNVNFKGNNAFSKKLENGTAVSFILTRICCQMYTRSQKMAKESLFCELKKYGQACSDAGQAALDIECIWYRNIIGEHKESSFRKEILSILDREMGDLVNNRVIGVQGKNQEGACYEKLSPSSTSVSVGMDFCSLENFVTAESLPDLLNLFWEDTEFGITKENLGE
Assay: PBM E-score (8-mer binding enrichment) (E-score (-0.5 to 0.5)); higher = stronger / more preferred TF binding
Settings: protein concentration: 100 nM; construct: GST-full length
Summary of the method: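 Universal all-10-mer Agilent arrays, double-stranded by primer extension on fresh or once-stripped slides, were probed with about 100-200 nM GST-tagged yeast transcription factors made by PURExpress. Fluorescent anti-GST detected bound protein, and masliner normalised the scans. E-scores from the Universal PBM Analysis Suite were given to each ungapped eight-base word pooled with its reverse complement.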

Row | Sequence | PBM E-score
1 | ACTCTCCA | -0.13
2 | ATCCCTTC | -0.0712
3 | CGCCCAAA | 0.0692
4 | CAACCCGC | 0.0691
5 | GCCAGTGA | -0.249
6 | CGCTGAAC | 0.158
7 | CTAGCATC | -0.0387
8 | ACAACTGT | -0.135
9 | AAGAGCTC | -0.13
10 | CGGGACGC | -0.0137
11 | ACCCGATC | 0.0304
12 | AAGTGCAG | -0.216
13 | CACCTAGG | -0.267
14 | ACTGCGAG | -0.372
15 | AGTGCCTA | -0.0953
16 | AATTTGGG | -0.0948
17 | ATCCCAAT | -0.139
18 | AACTCGAC | 0.149
19 | AGAGCGCA | -0.3
20 | AAGAGGGT | -0.242
21 | AGTCAATC | -0.0555
22 | GAGCATTA | -0.0398
23 | AGGAACGC | -0.0436
24 | CTTTCGGA | 0.286
25 | CTCTCTAA | -0.188

Row | Sequence | PBM E-score
26 | ATCTCCTA | -0.226
27 | CTGAGCCC | -0.168
28 | ACTACACC | -0.0218
29 | CAATAGAA | -0.11
30 | AGGTCTCC | -0.183
31 | GCCTGAGC | -0.144
32 | ACGTGCAC | -0.186
33 | ACTACGGG | -0.0246
34 | GTGGCAAA | -0.0971
35 | ATGGGGGG | -0.272
36 | GATATTAA | 0.282
37 | AGCGAGCG | -0.0336
38 | GATCTTAC | -0.0791
39 | GACACGTC | -0.215
40 | CTTCAAGA | 0.171
41 | AACTTTAG | 0.127
42 | CGAGGCGA | -0.124
43 | AGCCCTCC | -0.201
44 | AATACACG | 0.0157
45 | AGGCGGAC | 0.0942
46 | CGACATGC | 0.0106
47 | AGTTACGA | 0.107
48 | GCTGAAGC | -0.0318
49 | CTCTCTTC | -0.152
50 | AAGCTCAA | -0.122

Row | Sequence | PBM E-score
51 | ACTGGGCT | -0.237
52 | AGTAATTG | 0.0488
53 | GTTAAGGA | 0.0993
54 | AGACTGAC | -0.118
55 | CTTGCCTA | -0.211
56 | ATGTATAG | -0.0326
57 | CTGCGTCA | -0.207
58 | CACCGGCA | 0.287
59 | AGTTCGTC | 0.111
60 | ATTGCCTA | -0.224
61 | CGCGTCCC | -0.0841
62 | AGGCTTCG | -0.0451
63 | ACGCTCCG | -0.0533
64 | GATCTTAA | 0.0973
65 | GCACGCGC | -0.141
66 | ACGAGATC | -0.0526
67 | CATCTCAG | -0.0799
68 | CATGCAAA | 0.0269
69 | ACGACACC | -0.116
70 | CAGCTGCG | -0.0751
71 | ACCGTAGA | 0.0305
72 | CTATCGAA | -0.0803
73 | AACCACCG | 0.0415
74 | ACGCGGAA | 0.235
75 | GTACTTCA | 0.17

Row | Sequence | PBM E-score
76 | AGCACTCA | -0.0613
77 | GACATTTA | -0.141
78 | CATCATCA | 0.103
79 | AAGGGCGG | -0.189
80 | CGTACACG | -0.13
81 | GGCCAAAA | 0.12
82 | AGATGCGG | 0.173
83 | CATAACAC | 0.0203
84 | CACCATAG | -0.188
85 | CCAACCTA | -0.053
86 | CGACGAAA | 0.134
87 | CGGTCTGC | 0.102
88 | AATTCCAT | 0.0965
89 | ATTGTCCC | -0.0916
90 | GATAACCC | -0.0872
91 | GACTTGGA | -0.218
92 | CGTTGGAC | -0.266
93 | ACGGTGGC | -0.188
94 | AAAGAAGA | 0.0715
95 | CCGGTATC | 0.118
96 | AACGCAGG | -0.11
97 | ACCCGGTG | -0.0966
98 | CAAATGGC | -0.0869
99 | ACGATGAA | 0.0109
100 | AAAACGCA | 0.0774

Row | Sequence | PBM E-score
101 | ACATTTGC | -0.0277
102 | ACAGAATG | 0.0519
103 | ACAACCCG | 0.0761
104 | GGCCGCTA | 0.00054
105 | ATAGTATC | 0.232
106 | AATGGACC | 0.124
107 | AGCAAGTA | 0.0211
108 | ACCTGATG | -0.132
109 | CTGAGGAA | -0.105
110 | CTGCTATC | 0.109
111 | GGTCTTGA | -0.0168
112 | AGGGTTAA | -0.0712
113 | AATTCGGG | 0.103
114 | AAAGCCAG | -0.123
115 | TGACTTAA | -0.0415
116 | ACACAAGC | 0.0554
117 | ACACTACT | 0.0784
118 | CGAATCCC | 0.154
119 | AAATTCAA | 0.0286
120 | CATCCTAA | 0.102
121 | CATGACAA | 0.02
122 | GAGAATAC | 0.233
123 | CCGCATGA | 0.0346
124 | AAGCCGCG | 0.21
125 | CCCCGTCC | -0.328

Row | Sequence | PBM E-score
126 | CAGCCAGG | -0.155
127 | CCTCTAGC | -0.306
128 | ACGCCATA | -0.0867
129 | CTTTGTAC | -0.0256
130 | ATACCCAT | -0.0126
131 | ACTGCCAG | 0.014
132 | GGTCTTAA | -0.104
133 | AACACGTG | 0.032
134 | CTAGGCCA | -0.25
135 | TCTTGAAA | 0.254
136 | AGAGAAAC | 0.118
137 | CCAATGCA | -0.119
138 | GTAAACGA | 0.0565
139 | GCGAGAAA | -0.0014
140 | AACCGGCC | 0.318
141 | GTGACTGA | 0.0207
142 | AGAACCCC | -0.192
143 | TAACGTCA | 0.087
144 | CTGGGGCA | -0.335
145 | AAGGCGCA | 0.00578
146 | CCACCTCG | -0.196
147 | AAAAGTAA | 0.207
148 | ACTGCCTA | -0.179
149 | CGATAGCC | -0.00107
150 | CCGAAAGG | 0.166

From no. 62 as far as 68, copied from above:
Row | Sequence | PBM E-score
62 | AGGCTTCG | -0.0451
63 | ACGCTCCG | -0.0533
64 | GATCTTAA | 0.0973
65 | GCACGCGC | -0.141
66 | ACGAGATC | -0.0526
67 | CATCTCAG | -0.0799
68 | CATGCAAA | 0.0269

(list continues)

Row | Sequence | PBM E-score
151 | CACGACGG | 0.0919
152 | ACATCCAG | -0.12
153 | AGGTGAAT | 0.0437
154 | AACTTCAT | 0.072
155 | GGGATTCA | -0.0361
156 | TGTATGAA | 0.0892
157 | CCTGTTCG | 0.0266
158 | CTCGTATA | -0.14
159 | GAGGGGCA | -0.314
160 | GGAAGGTA | -0.0117
161 | GAGTAACC | 0.14
162 | CAATGAGG | -0.267
163 | AGTGCTAT | -0.299
164 | CAATAGGC | -0.067
165 | CTGTATGC | -0.0183
166 | GAAAGATC | -0.0718
167 | GGGGGGAA | -0.322
168 | AGCCCCCG | -0.236
169 | ACAAGATA | 0.0427
170 | CGCCAACG | -0.0725
171 | GGACGGAA | 0.0833
172 | GCAGCGAC | -0.128
